Assay results as given in the NIST ThermoML archive (doi:10.1016/j.tca.2010.04.013).

How the values were obtained:
[1] = relative permittivity at various frequencies (dimensionless); details: 303.15 K; 101.3 kPa; Liquid; Frequency=1 MHz; capacitance measurements at 1 MHz
[2] = relative permittivity at various frequencies (dimensionless); xn = mol fraction of the nth substance listed; details: 303.15 K, 101.3 kPa, Liquid, Frequency=1 MHz, capacitance measurements at 1 MHz

CC(=O)N(C)C [N,N-dimethylethanamide]
Details | relative permittivity
[1] | 37.72

CC(=O)N(C)C [N,N-dimethylethanamide] + CCO
[2]
Details | relative permittivity
x2 = 0 | 37.72
x2 = 0.102 | 36.31
x2 = 0.197 | 35.21
x2 = 0.285 | 34.16
x2 = 0.367 | 32.95
x2 = 0.444 | 32.15
x2 = 0.515 | 31.25
x2 = 0.583 | 30.3
x2 = 0.646 | 29.54
x2 = 0.705 | 28.71
x2 = 0.761 | 27.78
x2 = 0.814 | 27
x2 = 0.864 | 26.2
x2 = 0.912 | 25.49
x2 = 0.957 | 24.64

CC(=O)N(C)C [N,N-dimethylethanamide] + OCCO
[2]
Details | relative permittivity
x2 = 0 | 37.72
x2 = 0.106 | 38.21
x2 = 0.204 | 38.76
x2 = 0.294 | 39.26
x2 = 0.378 | 39.64
x2 = 0.455 | 39.95
x2 = 0.527 | 40.24
x2 = 0.594 | 40.45
x2 = 0.656 | 40.59
x2 = 0.715 | 40.62
x2 = 0.769 | 40.51
x2 = 0.821 | 40.49
x2 = 0.87 | 40.46
x2 = 0.916 | 40.29
x2 = 0.959 | 40.06
